Experiment [1] deals with T1, Dhh1−GFP (S. cerevisiae (endogenous in BY4741-derived yeast)) (UniProt P39517).
T1 sequence: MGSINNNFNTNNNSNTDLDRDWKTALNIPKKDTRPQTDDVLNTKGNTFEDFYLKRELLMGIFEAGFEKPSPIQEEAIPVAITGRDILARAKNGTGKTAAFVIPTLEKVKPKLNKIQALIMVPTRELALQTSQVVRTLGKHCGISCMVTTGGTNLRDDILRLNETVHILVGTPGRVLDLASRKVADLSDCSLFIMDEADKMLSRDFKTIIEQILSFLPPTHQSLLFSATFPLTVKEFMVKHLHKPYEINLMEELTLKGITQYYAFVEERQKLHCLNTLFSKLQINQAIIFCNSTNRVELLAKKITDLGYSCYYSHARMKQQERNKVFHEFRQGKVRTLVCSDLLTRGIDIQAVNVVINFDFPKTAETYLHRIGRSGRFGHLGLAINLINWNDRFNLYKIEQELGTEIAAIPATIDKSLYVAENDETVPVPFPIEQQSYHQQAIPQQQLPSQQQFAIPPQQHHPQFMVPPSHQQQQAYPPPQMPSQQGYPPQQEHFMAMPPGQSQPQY
As to the kind of experiment: co-IP; Dhh1−GFP immunoisolated on anti-GFP Protein-G beads from yeast lysate (+glucose and −glucose); eluate on silver-stained SDS gel, bands assigned by apparent molecular weight and MS from other purifications; BY4741 as negative control.

Protein sequences, listed by entry. Tags and fused reporters are not part of them.
UniProt P22147: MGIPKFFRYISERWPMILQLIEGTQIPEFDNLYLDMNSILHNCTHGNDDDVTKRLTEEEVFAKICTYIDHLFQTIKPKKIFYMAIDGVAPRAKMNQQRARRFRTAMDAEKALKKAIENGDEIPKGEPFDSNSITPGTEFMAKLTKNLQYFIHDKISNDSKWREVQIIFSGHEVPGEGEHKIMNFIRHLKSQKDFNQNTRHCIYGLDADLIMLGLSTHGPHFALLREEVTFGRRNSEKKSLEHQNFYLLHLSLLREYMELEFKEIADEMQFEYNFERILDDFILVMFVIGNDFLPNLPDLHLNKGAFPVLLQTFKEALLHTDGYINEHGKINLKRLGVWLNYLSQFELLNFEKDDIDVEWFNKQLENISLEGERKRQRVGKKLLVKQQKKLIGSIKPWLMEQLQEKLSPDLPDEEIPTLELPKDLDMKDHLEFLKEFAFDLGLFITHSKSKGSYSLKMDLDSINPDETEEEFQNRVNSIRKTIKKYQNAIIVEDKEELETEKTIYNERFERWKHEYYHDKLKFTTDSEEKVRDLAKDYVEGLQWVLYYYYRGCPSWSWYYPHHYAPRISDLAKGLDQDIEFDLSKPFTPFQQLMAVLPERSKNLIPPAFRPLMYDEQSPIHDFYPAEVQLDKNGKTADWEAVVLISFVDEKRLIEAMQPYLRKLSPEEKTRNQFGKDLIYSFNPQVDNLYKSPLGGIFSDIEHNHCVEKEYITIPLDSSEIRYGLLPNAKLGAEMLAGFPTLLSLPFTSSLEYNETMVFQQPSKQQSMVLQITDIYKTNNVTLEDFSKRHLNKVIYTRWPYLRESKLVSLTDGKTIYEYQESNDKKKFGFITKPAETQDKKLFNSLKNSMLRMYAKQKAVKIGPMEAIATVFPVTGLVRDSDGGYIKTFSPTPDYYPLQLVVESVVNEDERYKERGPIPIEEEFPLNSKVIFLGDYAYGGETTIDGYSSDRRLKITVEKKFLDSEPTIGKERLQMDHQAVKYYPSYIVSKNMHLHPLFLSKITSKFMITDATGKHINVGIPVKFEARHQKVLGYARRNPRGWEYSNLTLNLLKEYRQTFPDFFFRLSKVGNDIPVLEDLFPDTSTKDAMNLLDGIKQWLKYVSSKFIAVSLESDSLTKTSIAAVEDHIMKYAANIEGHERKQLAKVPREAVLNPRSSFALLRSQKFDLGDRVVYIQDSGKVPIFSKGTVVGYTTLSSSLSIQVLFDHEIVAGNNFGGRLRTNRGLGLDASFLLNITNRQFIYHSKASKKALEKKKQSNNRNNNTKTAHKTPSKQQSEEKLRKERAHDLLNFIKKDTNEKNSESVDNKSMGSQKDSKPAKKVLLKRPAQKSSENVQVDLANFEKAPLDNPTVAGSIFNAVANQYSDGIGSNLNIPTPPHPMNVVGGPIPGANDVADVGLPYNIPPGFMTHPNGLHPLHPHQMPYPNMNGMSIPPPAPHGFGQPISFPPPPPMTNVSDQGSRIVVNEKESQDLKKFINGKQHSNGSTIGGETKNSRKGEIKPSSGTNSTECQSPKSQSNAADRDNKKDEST

Experiment [2] deals with T2, Dhh1−GFP (S. cerevisiae (endogenous in BY4741-derived yeast)), P39517.
T2 chain: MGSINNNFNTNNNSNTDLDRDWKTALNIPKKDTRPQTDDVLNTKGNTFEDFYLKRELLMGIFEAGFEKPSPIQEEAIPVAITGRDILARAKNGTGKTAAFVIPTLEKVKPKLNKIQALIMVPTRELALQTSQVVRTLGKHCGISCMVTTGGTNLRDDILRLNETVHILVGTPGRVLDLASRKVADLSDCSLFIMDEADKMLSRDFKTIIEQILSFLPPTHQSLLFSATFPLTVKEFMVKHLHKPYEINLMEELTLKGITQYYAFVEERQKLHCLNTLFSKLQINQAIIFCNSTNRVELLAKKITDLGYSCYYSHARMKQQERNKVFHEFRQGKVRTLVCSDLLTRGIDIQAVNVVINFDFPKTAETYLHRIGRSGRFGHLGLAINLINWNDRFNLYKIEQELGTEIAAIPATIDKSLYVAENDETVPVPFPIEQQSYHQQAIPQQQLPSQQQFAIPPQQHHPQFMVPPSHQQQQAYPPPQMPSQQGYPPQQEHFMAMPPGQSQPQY
Described as above. The following applies: remark: other sources report otherwise.

These are yes or no findings as the source states them, for the method shown. In cells and extracts the contact can be indirect. Some entries that bind do so weakly or less than the wild type. Sequences can lack the tags named with a protein.

Regarding Xrn1 (from UniProt P22147 1-1528), the binding result in experiment [1] is given as “binds”.

B1: Dcp2, P53550 1-970 (protein)
chain: MSLPLRHALENVTSVDRILEDLLVRFIINCPNEDLSSVERELFHFEEASWFYTDFIKLMNPTLPSLKIKSFAQLIIKLCPLVWKWDIRVDEALQQFSKYKKSIPVRGAAIFNENLSKILLVQGTESDSWSFPRGKISKDENDIDCCIREVKEEIGFDLTDYIDDNQFIERNIQGKNYKIFLISGVSEVFNFKPQVRNEIDKIEWFDFKKISKTMYKSNIKYYLINSMMRPLSMWLRHQRQIKNEDQLKSYAEEQLKLLLGITKEEQIDPGRELLNMLHTAVQANSNNNAVSNGQVPSSQELQHLKEQSGEHNQQKDQQSSFSSQQQPSIFPSLSEPFANNKNVIPPTMPMANVFMSNPQLFATMNGQPFAPFPFMLPLTNNSNSANPIPTPVPPNFNAPPNPMAFGVPNMHNLSGPAVSQPFSLPPAPLPRDSGYSSSSPGQLLDILNSKKPDSNVQSSKKPKLKILQRGTDLNSIKQNNNDETAHSNSQALLDLLKKPTSSQKIHASKPDTSFLPNDSVSGIQDAEYEDFESSSDEEVETARDERNSLNVDIGVNVMPSEKDSRRSQKEKPRNDASKTNLNASAESNSVEWGPGKSSPSTQSKQNSSVGMQNKYRQEIHIGDSDAYEVFESSSDEEDGKKLEELEQTQDNSKLISQDILKENNFQDGEVPHRDMPTESNKSINETVGLSSTTNTVKKVPKVKILKRGETFASLANDKKAFDSSSNVSSSKDLLQMLRNPISSTVSSNQQSPKSQHLSGDEEIMMMLKRNSVSKPQNSEENASTSSINDANASELLGMLKQKEKDITAPKQPYNVDSYSQKNSAKGLLNILKKNDSTGYPRTEGGPSSEMSTSMKRNDATNNQELDKNSTELLNYLKPKPLNDGYENISNKDSSHELLNILHGNKNSSAFNNNVYATDGYSLASDNNENSSNKLLNMLQNRSSAINEPNFDVRSNGTSGSNELLSILHRK
On to B1, for which, in experiment [2], the binding entry is “binds”.

B2: Pat1 (protein, UniProt P25644 1-796)
chain: MSFFGLENSGNARDGPLDFEESYKGYGEHELEENDYLNDETFGDNVQVGTDFDFGNPHSSGSSGNAIGGNGVGATARSYVAATAEGISGPRTDGTAAAGPLDLKPMESLWSTAPPPAMAPSPQSTMAPAPAPQQMAPLQPILSMQDLERQQRQMQQQFMNFHAMGHPQGLPQGPPQQQFPMQPASGQPGPSQFAPPPPPPGVNVNMNQMPMGPVQVPVQASPSPIGMSNTPSPGPVVGATKMPLQSGRRSKRDLSPEEQRRLQIRHAKVEKILKYSGLMTPRDKDFITRYQLSQIVTEDPYNEDFYFQVYKIIQRGGITSESNKGLIARAYLEHSGHRLGGRYKRTDIALQRMQSQVEKAVTVAKERPSKLKDQQAAAGNSSQDNKQANTVLGKISSTLNSKNPRRQLQIPRQQPSDPDALKDVTDSLTNVDLASSGSSSTGSSAAAVASKQRRRSSYAFNNGNGATNLNKSGGKKFILELIETVYEEILDLEANLRNGQQTDSTAMWEALHIDDSSYDVNPFISMLSFDKGIKIMPRIFNFLDKQQKLKILQKIFNELSHLQIIILSSYKTTPKPTLTQLKKVDLFQMIILKIIVSFLSNNSNFIEIMGLLLQLIRNNNVSFLTTSKIGLNLITILISRAALIKQDSSRSNILSSPEISTWNEIYDKLFTSLESKIQLIFPPREYNDHIMRLQNDKFMDEAYIWQFLASLALSGKLNHQRIIIDEVRDEIFATINEAETLQKKEKELSVLPQRSQELDTELKSIIYNKEKLYQDLNLFLNVMGLVYRDGEISELK
Consider B2, for which the binding entry in experiment [1] was “binds”.

B3: Edc3 (protein, UniProt P39998 1-551)
chain: MSQFVGFGVQVELKDGKLIQGKIAKATSKGLTLNDVQFGDGGKSQAFKVRASRLKDLKVLTVASQSGKRKQQRQQQQQNDYNQNRGEHIDWQDDDVSKIKQQEDFDFQRNLGMFNKKDVFAQLKQNDDILPENRLQGHNRKQTQLQQNNYQNDELVIPDAKKDSWNKISSRNEQSTHQSQPQQDAQDDLVLEDDEHEYDVDDIDDPKYLPITQSLNITHLIHSATNSPSINDKTKGTVINDKDQVLAKLGQMIISQSRSNSTSLPAANKQTTIRSKNTKQNIPMATPVQLLEMESITSEFFSINSAGLLENFAVNASFFLKQKLGGRARLRLQNSNPEPLVVILASDSNRSGAKALALGRHLCQTGHIRVITLFTCSQNELQDSMVKKQTDIYKKCGGKIVNSVSSLESAMETLNSPVEIVIDAMQGYDCTLSDLAGTSEVIESRIKSMISWCNKQRGSTKVWSLDIPNGFDAGSGMPDIFFSDRIEATGIICSGWPLIAINNLIANLPSLEDAVLIDIGIPQGAYSQRTSLRKFQNCDLFVTDGSLLLDL
For B3, the binding entry in experiment [1] is listed as “binds”.
